Laboratory results reported in the supplement of paper PMC10849652.
This is one part of the list. Residues, ends and D or L forms follow the SMILES beside them. *: point of attachment. Cbz = O=C(OCc1ccccc1)*

By UniProt entry, the sequences of proteins in these tests, tags left out. Where a name states a change or a piece, a line headed by the entry shows the natural chain unless it says otherwise.
UniProt Q6PK04: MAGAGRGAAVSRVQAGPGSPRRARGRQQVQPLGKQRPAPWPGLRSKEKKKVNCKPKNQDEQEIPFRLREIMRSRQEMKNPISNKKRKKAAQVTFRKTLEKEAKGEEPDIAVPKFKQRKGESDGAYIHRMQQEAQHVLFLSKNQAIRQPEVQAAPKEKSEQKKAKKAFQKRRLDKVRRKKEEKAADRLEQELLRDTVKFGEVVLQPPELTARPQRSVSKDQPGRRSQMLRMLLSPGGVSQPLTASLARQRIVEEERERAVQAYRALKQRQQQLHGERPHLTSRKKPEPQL
UniProt P83916, whole entry, looked up: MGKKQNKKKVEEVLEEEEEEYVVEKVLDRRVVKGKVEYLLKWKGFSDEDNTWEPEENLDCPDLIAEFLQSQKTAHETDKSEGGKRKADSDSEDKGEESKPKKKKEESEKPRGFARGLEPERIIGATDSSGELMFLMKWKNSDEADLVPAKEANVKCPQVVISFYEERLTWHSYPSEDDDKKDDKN
UniProt P42575: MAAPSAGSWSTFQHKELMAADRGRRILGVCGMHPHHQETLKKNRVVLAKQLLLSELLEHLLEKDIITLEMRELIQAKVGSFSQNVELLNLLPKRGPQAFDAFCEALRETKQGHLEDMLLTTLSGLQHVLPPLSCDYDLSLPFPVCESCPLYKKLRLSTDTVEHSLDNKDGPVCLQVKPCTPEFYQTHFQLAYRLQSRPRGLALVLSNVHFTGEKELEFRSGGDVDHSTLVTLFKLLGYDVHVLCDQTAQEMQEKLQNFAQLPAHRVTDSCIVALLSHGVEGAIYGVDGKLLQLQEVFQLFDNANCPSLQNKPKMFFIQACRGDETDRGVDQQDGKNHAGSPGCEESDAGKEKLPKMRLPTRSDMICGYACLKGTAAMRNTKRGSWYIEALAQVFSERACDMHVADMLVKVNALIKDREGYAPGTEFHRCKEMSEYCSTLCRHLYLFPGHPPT
UniProt Q8ND76: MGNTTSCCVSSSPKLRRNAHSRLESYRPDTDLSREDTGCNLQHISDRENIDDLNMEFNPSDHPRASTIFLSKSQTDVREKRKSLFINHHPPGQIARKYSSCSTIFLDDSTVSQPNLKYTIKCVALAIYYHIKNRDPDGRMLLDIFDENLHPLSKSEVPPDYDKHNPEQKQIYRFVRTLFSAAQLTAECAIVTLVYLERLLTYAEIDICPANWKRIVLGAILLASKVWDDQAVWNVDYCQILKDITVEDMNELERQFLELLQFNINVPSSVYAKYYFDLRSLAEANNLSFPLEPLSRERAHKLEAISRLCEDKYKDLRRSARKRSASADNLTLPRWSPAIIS
UniProt Q6P4E1: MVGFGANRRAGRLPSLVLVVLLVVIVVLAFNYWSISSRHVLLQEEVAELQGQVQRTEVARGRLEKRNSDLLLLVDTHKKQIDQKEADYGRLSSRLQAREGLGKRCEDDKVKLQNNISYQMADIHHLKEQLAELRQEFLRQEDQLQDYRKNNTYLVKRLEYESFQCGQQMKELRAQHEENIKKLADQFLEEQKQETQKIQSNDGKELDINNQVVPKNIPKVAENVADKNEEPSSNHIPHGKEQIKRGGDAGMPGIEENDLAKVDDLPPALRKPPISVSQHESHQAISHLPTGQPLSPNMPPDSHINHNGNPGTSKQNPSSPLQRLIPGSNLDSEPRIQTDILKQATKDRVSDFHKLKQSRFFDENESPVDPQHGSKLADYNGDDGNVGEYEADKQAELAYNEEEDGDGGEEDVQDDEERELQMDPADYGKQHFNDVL
UniProt O95810: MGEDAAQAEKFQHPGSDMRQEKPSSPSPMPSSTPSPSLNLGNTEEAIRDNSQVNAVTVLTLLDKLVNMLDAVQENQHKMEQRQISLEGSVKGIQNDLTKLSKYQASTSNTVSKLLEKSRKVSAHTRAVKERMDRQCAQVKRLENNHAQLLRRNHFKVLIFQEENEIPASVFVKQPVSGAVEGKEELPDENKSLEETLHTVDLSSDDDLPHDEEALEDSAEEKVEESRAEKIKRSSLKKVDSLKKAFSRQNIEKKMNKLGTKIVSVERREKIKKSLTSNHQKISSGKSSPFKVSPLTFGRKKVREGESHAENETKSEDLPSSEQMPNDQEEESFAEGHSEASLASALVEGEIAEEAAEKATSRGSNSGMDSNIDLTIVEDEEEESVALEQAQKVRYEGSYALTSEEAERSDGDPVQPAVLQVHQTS
UniProt Q8N4T8: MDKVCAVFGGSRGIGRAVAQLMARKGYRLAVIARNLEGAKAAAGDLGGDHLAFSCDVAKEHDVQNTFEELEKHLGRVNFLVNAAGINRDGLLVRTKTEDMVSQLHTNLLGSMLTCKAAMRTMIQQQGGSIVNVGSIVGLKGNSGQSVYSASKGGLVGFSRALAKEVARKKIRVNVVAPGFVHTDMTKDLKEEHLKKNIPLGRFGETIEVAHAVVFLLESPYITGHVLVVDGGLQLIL
UniProt P04040: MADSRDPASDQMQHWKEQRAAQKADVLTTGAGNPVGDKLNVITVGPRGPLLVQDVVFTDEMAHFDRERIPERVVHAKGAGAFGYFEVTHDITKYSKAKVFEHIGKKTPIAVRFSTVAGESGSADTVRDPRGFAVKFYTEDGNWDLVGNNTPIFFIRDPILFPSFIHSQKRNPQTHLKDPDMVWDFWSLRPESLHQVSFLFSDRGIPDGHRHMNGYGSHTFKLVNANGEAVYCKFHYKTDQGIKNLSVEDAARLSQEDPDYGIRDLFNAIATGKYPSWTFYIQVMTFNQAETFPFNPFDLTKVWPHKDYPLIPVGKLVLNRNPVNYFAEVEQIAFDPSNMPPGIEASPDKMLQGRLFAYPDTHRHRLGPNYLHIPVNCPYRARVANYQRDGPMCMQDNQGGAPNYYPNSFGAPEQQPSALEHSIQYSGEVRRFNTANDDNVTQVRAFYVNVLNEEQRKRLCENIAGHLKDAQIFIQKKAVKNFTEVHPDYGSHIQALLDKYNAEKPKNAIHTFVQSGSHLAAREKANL
UniProt Q9GZT6: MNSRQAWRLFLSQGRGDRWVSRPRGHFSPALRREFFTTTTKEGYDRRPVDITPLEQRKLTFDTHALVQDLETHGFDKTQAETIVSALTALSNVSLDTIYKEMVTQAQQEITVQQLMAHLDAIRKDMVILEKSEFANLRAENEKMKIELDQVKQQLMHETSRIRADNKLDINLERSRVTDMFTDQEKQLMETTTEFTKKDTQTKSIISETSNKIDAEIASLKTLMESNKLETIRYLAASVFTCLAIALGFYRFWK
UniProt Q8IWP9: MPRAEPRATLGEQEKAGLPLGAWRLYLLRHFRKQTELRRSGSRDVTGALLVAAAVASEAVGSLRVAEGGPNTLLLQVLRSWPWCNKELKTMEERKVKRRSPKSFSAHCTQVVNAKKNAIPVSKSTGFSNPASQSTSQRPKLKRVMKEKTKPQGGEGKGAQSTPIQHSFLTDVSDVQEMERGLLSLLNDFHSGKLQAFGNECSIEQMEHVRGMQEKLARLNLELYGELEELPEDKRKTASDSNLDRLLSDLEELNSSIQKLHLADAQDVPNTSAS
UniProt Q16543: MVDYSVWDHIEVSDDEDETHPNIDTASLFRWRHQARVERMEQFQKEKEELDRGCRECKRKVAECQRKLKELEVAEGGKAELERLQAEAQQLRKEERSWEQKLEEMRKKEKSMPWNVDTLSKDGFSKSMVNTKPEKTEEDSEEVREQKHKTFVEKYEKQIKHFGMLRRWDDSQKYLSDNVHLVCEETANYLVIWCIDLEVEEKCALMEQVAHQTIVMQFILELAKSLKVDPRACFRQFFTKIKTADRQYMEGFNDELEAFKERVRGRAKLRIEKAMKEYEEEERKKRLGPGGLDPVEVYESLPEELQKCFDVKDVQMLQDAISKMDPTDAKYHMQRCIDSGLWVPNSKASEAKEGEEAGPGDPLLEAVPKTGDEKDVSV
UniProt Q96ER9: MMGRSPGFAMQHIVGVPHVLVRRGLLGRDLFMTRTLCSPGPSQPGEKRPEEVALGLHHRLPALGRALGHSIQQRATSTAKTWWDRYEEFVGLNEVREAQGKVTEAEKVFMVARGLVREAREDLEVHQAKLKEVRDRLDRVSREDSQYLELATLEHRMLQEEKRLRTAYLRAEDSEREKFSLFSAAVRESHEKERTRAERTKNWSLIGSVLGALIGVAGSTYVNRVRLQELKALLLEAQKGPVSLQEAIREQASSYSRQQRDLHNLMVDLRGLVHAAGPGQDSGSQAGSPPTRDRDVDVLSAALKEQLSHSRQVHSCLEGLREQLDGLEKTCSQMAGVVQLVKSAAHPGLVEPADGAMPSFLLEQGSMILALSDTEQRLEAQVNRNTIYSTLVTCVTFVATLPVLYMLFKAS
UniProt Q8NHZ8, whole entry, looked up: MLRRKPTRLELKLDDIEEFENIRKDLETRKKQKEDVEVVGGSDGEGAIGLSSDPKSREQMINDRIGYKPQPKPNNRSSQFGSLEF
UniProt Q7Z6B0: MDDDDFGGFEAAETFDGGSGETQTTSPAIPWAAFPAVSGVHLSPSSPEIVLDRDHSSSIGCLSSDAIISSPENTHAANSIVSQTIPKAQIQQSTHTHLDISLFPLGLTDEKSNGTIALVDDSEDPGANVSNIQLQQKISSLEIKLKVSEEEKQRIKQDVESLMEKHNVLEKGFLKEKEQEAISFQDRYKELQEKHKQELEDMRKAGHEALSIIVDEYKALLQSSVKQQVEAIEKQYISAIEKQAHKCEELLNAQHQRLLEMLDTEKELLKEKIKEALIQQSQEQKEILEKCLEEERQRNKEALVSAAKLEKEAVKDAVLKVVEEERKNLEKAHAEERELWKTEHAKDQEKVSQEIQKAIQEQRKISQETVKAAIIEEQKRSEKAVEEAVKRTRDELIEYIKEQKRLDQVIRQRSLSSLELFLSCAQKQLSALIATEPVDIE
UniProt O60826, whole entry, looked up: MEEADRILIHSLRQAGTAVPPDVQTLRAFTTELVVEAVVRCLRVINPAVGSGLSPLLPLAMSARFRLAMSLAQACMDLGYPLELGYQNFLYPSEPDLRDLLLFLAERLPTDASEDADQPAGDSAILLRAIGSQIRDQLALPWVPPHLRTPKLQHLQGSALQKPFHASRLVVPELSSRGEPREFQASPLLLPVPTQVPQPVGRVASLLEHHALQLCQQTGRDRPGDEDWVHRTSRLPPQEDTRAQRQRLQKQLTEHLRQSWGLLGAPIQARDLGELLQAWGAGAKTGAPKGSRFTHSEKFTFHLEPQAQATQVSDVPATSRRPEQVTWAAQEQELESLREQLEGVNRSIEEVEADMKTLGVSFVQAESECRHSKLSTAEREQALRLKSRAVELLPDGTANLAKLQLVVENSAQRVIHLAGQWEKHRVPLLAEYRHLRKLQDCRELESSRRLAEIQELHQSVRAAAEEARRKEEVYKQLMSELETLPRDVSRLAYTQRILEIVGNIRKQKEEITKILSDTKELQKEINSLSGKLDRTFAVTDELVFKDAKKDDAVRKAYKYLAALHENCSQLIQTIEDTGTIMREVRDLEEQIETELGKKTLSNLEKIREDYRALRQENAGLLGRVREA
UniProt P40227, whole entry, looked up: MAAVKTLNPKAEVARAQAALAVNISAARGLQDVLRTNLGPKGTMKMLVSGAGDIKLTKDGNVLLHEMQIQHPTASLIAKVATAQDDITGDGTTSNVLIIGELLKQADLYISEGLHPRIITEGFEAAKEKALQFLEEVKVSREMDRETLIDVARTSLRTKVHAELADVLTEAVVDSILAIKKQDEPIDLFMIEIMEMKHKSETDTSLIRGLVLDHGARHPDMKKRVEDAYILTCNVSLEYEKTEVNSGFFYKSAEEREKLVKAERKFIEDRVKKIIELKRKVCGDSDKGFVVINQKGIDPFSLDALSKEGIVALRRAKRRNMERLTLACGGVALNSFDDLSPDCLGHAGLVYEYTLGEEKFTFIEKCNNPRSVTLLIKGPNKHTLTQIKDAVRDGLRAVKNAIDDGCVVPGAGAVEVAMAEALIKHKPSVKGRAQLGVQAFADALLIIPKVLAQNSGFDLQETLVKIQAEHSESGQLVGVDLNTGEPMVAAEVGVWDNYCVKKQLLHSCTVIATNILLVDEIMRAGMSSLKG

What was measured:
Experiment in all cases: log2 fold change, soluble protein after heating vs DMSO (PISA); higher = thermal stabilisation; K562 cells, 10 uM, 30 min; active = over 0.2 and 3.5 SD of the protein, either way, in both replicates (recomputed)
IRAK-1-4 Inhibitor I = compound: C1COCCN1CCN2C3=CC=CC=C3N=C2NC(=O)C4=CC(=CC=C4)[N+](=O)[O-] [IRAK-1-4 Inhibitor I]
Method in brief: (§1)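 Soluble protein was quantified by TMTpro 16plex LC-MS/MS after channel sums were equalised. It was obtained as the supernatant after 21,000xg for 90 min from pooled aliquots of K562 cells (2×10^6 cells/mL, 10 μM compound, 30 min) heated for 3 min across 48°C-58°C and extracted in PBS with 0.5% NP-40 at 4°C. Thermal stability values are relative to control samples and come from duplicates. They are given as log2 fold changes.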

ibrutinib = compound: C=CC(=O)N1CCC[C@@H](n2nc(-c3ccc(Oc4ccccc4)cc3)c3c(N)ncnc32)C1 [ibrutinib]
Method in brief: as §1

[1] = compound: CC(=O)c1cnc2ccc(-c3cc(Cl)c(O)c(Cl)c3)nc2c1N[C@H]1CC[C@H](CN(C)C)CC1
Method in brief: as §1

ralimetinib = compound: CC(C)(C)Cn1c(N)nc2ccc(-c3[nH]c(C(C)(C)C)nc3-c3ccc(F)cc3)nc21 [ralimetinib]
Method in brief: as §1

[2] = compound: CC(C)(O)CC(=O)NCCn1ccc2ncnc(Nc3ccc(Oc4cccc(C(F)(F)F)c4)c(Cl)c3)c21
Method in brief: as §1

[3] = compound: CC(C)C1=C2N=C(C=C(N2N=C1)NCC3=CC=CC=C3)NCCCCCCN
Method in brief: as §1

[4] = compound: CC(C)C[C@@H](C=O)NC(=O)[C@H](CC(C)C)NC(=O)[C@H](CC(C)C)NC(=O)OCc1ccccc1
Method in brief: as §1

pinometostat = compound: CC(C)N(C[C@H]1O[C@@H](n2cnc3c(N)ncnc32)[C@H](O)[C@@H]1O)[C@H]1C[C@@H](CCc2nc3cc(C(C)(C)C)ccc3[nH]2)C1 [pinometostat]
Method in brief: as §1

[5] = compound: CC1=C(C(CC(=O)N1)C2=CC=C(C=C2)C(F)(F)F)C(=O)NC3=C(C=C4C(=C3)C=NN4)F
Method in brief: as §1

[6] = compound: CC1=C(C2=C(C=C1)C(=O)C3=CC=CC=C3N2CCCN)C
Method in brief: as §1

[7] = compound: CC1=C(C=C(C=C1)NC(=O)C2=CC(=CC=C2)C(C)(C)C#N)NC3=CC4=C(C=C3)N=CN(C4=O)C
Method in brief: as §1

[8] = compound: CC1=C(C=C(C=C1)NC(=O)C2=CC(=CC=C2)N(C)C)NC(=O)C3=CC=C(C=C3)O
Method in brief: as §1

[9] = compound: CC1=NC(=CC=C1)C2=C(N=C(N2)C(C)(C)C)C3=CC4=NC=CN=C4C=C3
Method in brief: as §1

Nexturastat A = compound: CCCCN(Cc1ccc(C(=O)NO)cc1)C(=O)Nc1ccccc1 [Nexturastat A]
Method in brief: as §1

vemurafenib = compound: CCCS(=O)(=O)Nc1ccc(F)c(C(=O)c2c[nH]c3ncc(-c4ccc(Cl)cc4)cc23)c1F [vemurafenib]
Method in brief: as §1

[10] = compound: CCCc1cc(C)[nH]c(=O)c1CNC(=O)c1cc(-c2ccnc(N3CCN(C)CC3)c2)cc2c1cnn2C(C)C
Method in brief: as §1

givinostat = compound: CCN(CC)Cc1ccc2cc(COC(=O)Nc3ccc(C(=O)NO)cc3)ccc2c1 [givinostat]
Method in brief: as §1

barasertib = compound: CCN(CCCOc1ccc2c(Nc3cc(CC(=O)Nc4cccc(F)c4)[nH]n3)ncnc2c1)CCOP(=O)(O)O [barasertib]
Method in brief: as §1

[11] = compound: CC1=CC=C(C=C1)SC2=C3C=C(SC3=CN=C2)C(=O)N
Method in brief: as §1

[12] = compound: CCCS(=O)(=O)Nc1ccc(F)c(C(=O)c2c[nH]c3ncc(Cl)cc23)c1F
Method in brief: as §1

Measured: log2 fold change

CCDC137 (UniProt Q6PK04)
inactive: IRAK-1-4 Inhibitor I -0.148 | ibrutinib 0.192 | [1] 0.335 | ralimetinib 0.024 | [2] 0.026 | [3] 0.14 | [4] 0.05 | pinometostat 0.4 | [5] 0.035 | [6] -0.504 | [7] -0.021 | [8] -0.09 | [9] -0.159 | Nexturastat A 0.014 | vemurafenib 0.095 | [10] 0.217 | givinostat 0.051 | barasertib -0.219

CBX1 (UniProt P83916)
active: [6] -0.288 | [9] 0.318
inactive: IRAK-1-4 Inhibitor I -0.105 | ibrutinib -0.001 | [1] -0.038 | ralimetinib -0.054 | [2] 0.013 | [3] 0.034 | [4] -0.007 | pinometostat -0.143 | [7] 0.049 | [8] -0.005 | [11] 0.04 | Nexturastat A -0.026 | vemurafenib 0.07 | [12] 0.057 | [10] -0.011 | givinostat -0.042 | barasertib -0.009

CASP2 (UniProt P42575)
inactive: IRAK-1-4 Inhibitor I 0.017 | ibrutinib 0.027 | [1] 0 | ralimetinib -0.074 | [2] -0.073 | [3] -0.082 | [4] 0.072 | pinometostat -0.013 | [6] 0.091 | [7] 0.025 | [8] 0.001 | [11] 0.215 | [9] 0.056 | Nexturastat A 0.004 | vemurafenib 0.026 | [12] 0.193 | [10] 0.086 | givinostat 0.039 | barasertib 0.026

CCNY (UniProt Q8ND76)
inactive: IRAK-1-4 Inhibitor I -0.111 | ibrutinib 0.113 | [1] 0.127 | ralimetinib 0.084 | [2] -0.07 | [3] 0.019 | [4] -0.036 | pinometostat 0.016 | [5] -0.045 | [6] 0.237 | [7] 0.262 | [8] -0.056 | [11] -0.008 | [9] 0.004 | Nexturastat A 0.006 | vemurafenib -0.047 | [12] 0.037 | givinostat -0.054 | barasertib -0.139

CASC4 (UniProt Q6P4E1)
inactive: IRAK-1-4 Inhibitor I -0.004 | ibrutinib 0.005 | [1] -0.01 | ralimetinib 0.005 | [2] 0.027 | [3] 0.01 | [4] 0.017 | pinometostat -0.011 | [5] -0.011 | [6] -0.025 | [7] 0.002 | [8] -0.014 | [11] -0.005 | [9] -0.008 | Nexturastat A -0.088 | vemurafenib -0.02 | [12] -0.086 | [10] -0.064 | givinostat 0.054 | barasertib 0.019

CAVIN2 (UniProt O95810)
inactive: IRAK-1-4 Inhibitor I -0.029 | ibrutinib 0.033 | [1] -0.018 | ralimetinib 0.113 | [2] 0 | [3] -0.203 | [4] 0.082 | pinometostat 0.156 | [5] 0.057 | [6] -0.293 | [7] 0.03 | [8] 0 | [11] -0.035 | [9] -0.06 | Nexturastat A 0.155 | vemurafenib -0.031 | [12] -0.028 | [10] 0.039 | givinostat 0.015 | barasertib -0.043

CBR4 (UniProt Q8N4T8)
inactive: IRAK-1-4 Inhibitor I 0.067 | ibrutinib 0.024 | [1] -0.017 | ralimetinib -0.013 | [2] -0.025 | [3] 0.023 | [4] -0.031 | pinometostat -0.018 | [5] 0.028 | [6] 0.031 | [7] -0.007 | [8] 0.025 | [11] 0.026 | [9] -0.007 | Nexturastat A 0.03 | vemurafenib -0.057 | [12] -0.022 | [10] -0.023 | givinostat -0.021 | barasertib -0.022

CAT (UniProt P04040)
inactive: IRAK-1-4 Inhibitor I 0.04 | ibrutinib 0.019 | [1] 0.036 | ralimetinib -0.022 | [2] 0.007 | [3] 0.053 | [4] -0.037 | pinometostat -0.031 | [5] -0.005 | [6] 0.021 | [7] -0.017 | [8] 0.006 | [11] 0.188 | [9] 0.008 | Nexturastat A -0.073 | vemurafenib 0.009 | [12] -0.002 | [10] 0.009 | givinostat 0.002 | barasertib 0.012

CCDC90B (UniProt Q9GZT6)
inactive: IRAK-1-4 Inhibitor I -0.059 | ibrutinib -0.012 | [1] -0.022 | ralimetinib -0.075 | [2] -0.017 | [3] 0.043 | [4] -0.036 | pinometostat -0.131 | [5] -0.018 | [6] 0.131 | [7] -0.006 | [8] 0.011 | [11] 0.007 | [9] 0.006 | Nexturastat A -0.01 | vemurafenib 0.117 | [12] -0.011 | [10] -0.01 | givinostat -0.022 | barasertib 0.028

CCDC28A (UniProt Q8IWP9)
inactive: IRAK-1-4 Inhibitor I 0.122 | ibrutinib -0.008 | [1] 0.006 | ralimetinib 0.003 | [2] 0.151 | [3] -0.019 | [4] 0.082 | pinometostat 0.125 | [5] -0.013 | [6] 0.162 | [7] -0.113 | [8] 0.03 | [11] -0.008 | [9] -0.04 | Nexturastat A -0.214 | vemurafenib -0.084 | [12] -0.013 | [10] 0.049 | givinostat 0.01 | barasertib -0.027

CDC37 (UniProt Q16543)
inactive: IRAK-1-4 Inhibitor I 0.005 | ibrutinib -0.049 | [1] 0.018 | ralimetinib -0.032 | [2] -0.022 | [3] 0.01 | [4] -0.035 | pinometostat -0.035 | [5] -0.019 | [6] -0.039 | [7] 0.022 | [8] 0.014 | [11] -0.049 | [9] 0.023 | Nexturastat A -0.068 | vemurafenib 0.03 | [12] -0.029 | [10] 0.006 | givinostat -0.03 | barasertib 0.004

CCDC51 (UniProt Q96ER9)
inactive: IRAK-1-4 Inhibitor I 0.058 | ibrutinib 0.038 | [1] -0.051 | ralimetinib -0.03 | [2] -0.167 | [3] -0.036 | [4] -0.062 | pinometostat 0.002 | [5] -0.006 | [6] 0.005 | [7] 0.122 | [8] -0.007 | [11] 0.08 | [9] 0.061 | Nexturastat A 0.02 | vemurafenib 0.052 | [12] 0.106 | [10] -0.03 | givinostat 0 | barasertib 0.025

CDC26 (UniProt Q8NHZ8)
inactive: IRAK-1-4 Inhibitor I -0.014 | ibrutinib -0.003 | [1] 0.099 | ralimetinib 0.188 | [2] 0.007 | [3] -0.01 | [4] -0.04 | pinometostat -0.128 | [6] 0.049 | [7] -0.026 | [8] 0.029 | [11] -0.025 | [9] 0.021 | Nexturastat A 0.067 | [12] -0.048 | [10] 0.056 | givinostat 0.056 | barasertib 0.007
active: vemurafenib 0.534

CCDC91 (UniProt Q7Z6B0)
inactive: IRAK-1-4 Inhibitor I -0.067 | ibrutinib -0.014 | [1] 0.021 | ralimetinib -0.009 | [2] -0.014 | [3] 0.058 | [4] 0.032 | pinometostat -0.033 | [5] -0.013 | [6] 0.005 | [7] 0.003 | [8] 0.012 | [11] -0.029 | [9] 0.093 | Nexturastat A -0.068 | vemurafenib -0.064 | [12] 0.016 | [10] -0.007 | givinostat 0.014 | barasertib 0.028

CCDC22 (UniProt O60826)
inactive: IRAK-1-4 Inhibitor I -0.006 | ibrutinib 0.013 | [1] 0.004 | ralimetinib 0.102 | [2] -0.003 | [3] -0.041 | [4] 0.079 | pinometostat 0.12 | [5] 0.252 | [6] 0.083 | [7] 0.005 | [8] -0.05 | [11] 0.025 | [9] 0.008 | Nexturastat A 0.025 | vemurafenib -0.019 | [12] 0.05 | [10] 0.045 | givinostat 0.042 | barasertib 0.062

CCT6A (UniProt P40227)
inactive: IRAK-1-4 Inhibitor I 0.005 | ibrutinib -0.003 | [1] 0.008 | ralimetinib -0.003 | [2] -0.012 | [3] 0.016 | [4] -0.041 | pinometostat -0.055 | [5] 0.071 | [6] 0.02 | [7] 0.007 | [8] -0.001 | [11] 0 | [9] 0.022 | Nexturastat A -0.034 | vemurafenib -0.023 | [12] -0.003 | [10] -0.018 | givinostat -0.021 | barasertib -0.002
